From PubChem BioAssay AID493014 (National Center for Advancing Translational Sciences (NCATS), 2011)
Out of some 340,000 compounds screened, about 170 (0.05%) were called active. Inconclusive results, whose numbers are uncertain, are shown with a selection of clear calls. The call rests on the fitted dose curve; in most records, active means well fitted inhibition curve with a large enough effect in the signal ratio, with a control signal flat (not every such curve was filed as active); inconclusive means small, poorly fitted or top-dose-only effect, or effect the other way, or a change in a side signal; inactive means flat fitted curve, though single readings scatter; the % refers to the signal ratio. Potencies beside an inconclusive call are fits to weak or partial responses and may not hold up.

Assay: qHTS Assay to Find Inhibitors of Chronic Active B-Cell Receptor Signaling;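 on activity change, negative = inhibition: plate controls were basal doxycycline-induced cells for no effect and cells given 10 µM MG132 for full effect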
Details: ABC-DLBCL IkBa-CBG/CBR reporter, luminescence ratio (green luciferase fused to IkBa over red control in TMD8 lymphoma cells), 4 h
How it was run: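 Cell line TMD8 (human ABC DLBCL), stably expressing tet-inducible CBG68-IkBa fusion and CBR; IMDM/0.5% FBS; cpd up to 46 uM; dox induction, 4 h, 37C/5% CO2; dual luminescence; green/red ratio; MG132 control.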

[1] = activity change, negative = inhibition: at 46.1 µM (top of the series)
Potency means the concentration at half of the fitted maximal effect.

Cc1cc(N)ccc1-n1c(C)ccc1C
activity change, negative = inhibition [1]: inactive

O=C(NCCCN1CCOCC1)c1sc2cc(F)ccc2c1Cl
activity change, negative = inhibition [1]: inconclusive: 2.74%

Cc1ccc(NC(=O)CN(C)C(=O)CSc2nc3ccccc3c(=O)n2Cc2ccco2)cc1
activity change, negative = inhibition [1]: inconclusive: 13.3%

CCN(CC)C(=O)c1ccc(COc2ccc(Cl)c(C)c2)o1
activity change, negative = inhibition [1]: inconclusive: -1.7%

COC(=O)Nc1ccc(S(=O)(=O)N2CCCc3ccccc32)cc1
activity change, negative = inhibition [1]: inconclusive: -28.2%

O=C(NNC1=NS(=O)(=O)c2ccccc21)c1cccc([N+](=O)[O-])c1
Potency [1]: inconclusive: 28.2 µM [falling, single point]

COc1ccc(-n2c(SCc3nnc(-c4ccccc4)o3)nnc2-c2ccccc2)cc1
activity change, negative = inhibition [1]: inconclusive: 7.74%

Cc1ccc(NC(=O)C(=O)c2ccc(C)cc2)cc1
Potency [1]: inconclusive: 31.6 µM [falling, single point]

CCOc1ccc(NS(=O)(=O)c2ccc(C(=O)N3CCCC(C)C3)cc2)cc1 (stereo not given)
activity change, negative = inhibition [1]: inactive

Cc1nnc(SCC2=C(C(=O)O)N3C(=O)C(NC(=O)Cn4nc(C(F)F)c(Cl)c4C)C3SC2)s1 (stereo not given)
activity change, negative = inhibition [1]: inconclusive: -1.25%

CCn1nccc1C(=O)Nc1ccc(C(=O)OC(C)C)cc1
activity change, negative = inhibition [1]: inconclusive: -0.14%

O=C(Nc1cccc(S(=O)(=O)Nc2ccccc2Cl)c1)c1ccc(Cl)nc1
activity change, negative = inhibition [1]: inconclusive: 4.95%

CCC(CC)=NNC(=O)c1ccccc1OCc1ccc(F)cc1
Potency [1]: inconclusive: 20.6 µM [falling, partial curve]

CC(=O)c1ccc(S(=O)(=O)N2CCN(C(=O)c3ccc(-n4cncn4)c([N+](=O)[O-])c3)CC2)cc1
activity change, negative = inhibition [1]: inconclusive: 2.45%

CCC(CO)Nc1ncnc2c1cnn2-c1ccc(C)cc1 (stereo not given)
activity change, negative = inhibition [1]: inconclusive: -3.79%

O=C(Nc1ccc(N2CCN(C(=O)c3ccccc3)CC2)cc1)c1ccc2c(c1)OCCO2
activity change, negative = inhibition [1]: inactive

CCOC(=O)N1CCN(C(=O)CCSc2ccccc2)CC1
activity change, negative = inhibition [1]: inactive

O=C(CN1C(=O)C2CC=CCC2C1=O)OCCN1C(=O)c2ccccc2C1=O (stereo not given)
activity change, negative = inhibition [1]: inconclusive: 5.48%

Fc1ccc(-c2nc3ccccc3c3nc4ccccc4n23)cc1
activity change, negative = inhibition [1]: inconclusive: 1.73%

C=CCNc1nnc(Sc2ncccc2[N+](=O)[O-])s1
Potency [1]: inconclusive: 25.1 µM [falling, single point]

COCc1c(Br)c(C)nc(OCC(=O)N/N=C/c2ccco2)c1C#N
Potency [1]: inconclusive: 14.1 µM [falling, partial curve, poor fit]

COc1cc(-c2nnc(SCC(=O)OC3CCCCC3)o2)cc(OC)c1OC
Potency [1]: inconclusive: 29.1 µM [falling, partial curve, poor fit]

C/C=C/c1ccc(OCCCNC)c(OC)c1
Potency [1]: inconclusive: 18.4 µM [falling, partial curve]

CC(NC(=O)CCNC(=O)c1ccc(Br)cc1)c1ccc(S(N)(=O)=O)cc1 (stereo not given)
activity change, negative = inhibition [1]: inactive

CC1CC(C)CN(C(=O)c2nn(C)c3c2CSc2ccccc2-3)C1 (stereo not given)
activity change, negative = inhibition [1]: inconclusive: 15%

O=C(CSc1ccccc1F)Nc1ccc(N2CCOCC2)cc1
activity change, negative = inhibition [1]: inconclusive: 2.83%

CCO[C@@H]1OC(C(=O)N2CCN(Cc3ccccc3)CC2)=C[C@H](c2coc3ccccc3c2=O)[C@H]1CCCO
activity change, negative = inhibition [1]: inactive

COC(=O)c1ccc(C23CC4(C2)[C@H](CN(C)[C@@H]4c2ccccc2)C3c2ccc(C(F)(F)F)cc2)cc1 (stereo not given in full)
activity change, negative = inhibition [1]: inactive

CC(C)(C)c1csc(NC2=NS(=O)(=O)c3ccccc32)n1
activity change, negative = inhibition [1]: inconclusive: 1.07%

CN1CCN(c2ccc(NC(=O)COc3cccc4ccccc34)cc2)CC1
activity change, negative = inhibition [1]: inactive

CCOC(=O)C1CCCN(C(=O)CCn2nc(-c3ccccc3)ccc2=O)C1 (stereo not given)
activity change, negative = inhibition [1]: inconclusive: -2.18%

Cc1ccc(-n2c(CNc3ccc(C)c(Cl)c3)n[nH]c2=S)cc1
activity change, negative = inhibition [1]: inactive

COc1cc2cc(CN(CCCN3CCOCC3)C(=O)Nc3ccc(F)cc3)c(=O)[nH]c2cc1OC
Potency [1]: inconclusive: 8.91 µM [rising, partial curve, poor fit]

CCCCn1cnc2c(oc3nc4c(cc32)CCCC4)c1=O
activity change, negative = inhibition [1]: inactive

COc1ccc2[nH]c(=O)c(CN(Cc3ccc4c(c3)OCO4)C(C)=O)cc2c1
activity change, negative = inhibition [1]: inactive

CN(C)c1cccc(N(C)C)c1CNC(=O)NC(=O)c1c(F)cccc1F
Potency [1]: inconclusive: 35.5 µM [falling, partial curve, poor fit]

O=C(Nc1ccc(NC(=O)C2CC2)nc1)c1cnccn1
activity change, negative = inhibition [1]: inconclusive: -2.04%

CCC(=O)NCCc1nc2cc(NC(=O)c3ccc(OC)cc3)ccc2n1C
Potency [1]: inconclusive: 4.61 µM [falling, partial curve]

O=C(NCCOc1ccccc1)c1cncc(Br)c1
activity change, negative = inhibition [1]: inconclusive: 0%

C=CCSC1=N/C(=C\c2ccc(C(=O)O)cc2)C(=O)S1
Potency [1]: inconclusive: 35.5 µM [falling, single point]

O=C(N/N=C/c1ccc(-c2ccccc2C(=O)O)o1)c1cccs1
Potency [1]: inconclusive: 14.6 µM [falling, partial curve]

NS(=O)(=O)c1ccc(N/N=C2/CCCCC2C2CCCCC2)c([N+](=O)[O-])c1 (stereo not given)
activity change, negative = inhibition [1]: inconclusive: 13.5%

COc1ccc(OC)c(S(=O)(=O)NCc2ccccn2)c1
activity change, negative = inhibition [1]: inactive

Cc1[nH]c2ccccc2c1/C=N/NC(=O)c1cc(-c2ccccc2)n[nH]1
activity change, negative = inhibition [1]: inactive

O=C(Cn1c(CC(=O)N2CCOCC2)nc2ccccc21)Nc1ccc2c(c1)OC(F)(F)O2
activity change, negative = inhibition [1]: inconclusive: 3.85%

COC(=O)C(C(=O)OC)=C(/C=C/N(C)C)N(C)C
activity change, negative = inhibition [1]: inactive

COc1cc(C2NC(=O)N(C)C(C)=C2C(=O)OCc2ccccc2)cc(Br)c1O (stereo not given)
Potency [1]: inconclusive: 20 µM [falling, partial curve, poor fit]

CC1CCN(c2nnc(-c3ccccc3)c3ccccc23)CC1
activity change, negative = inhibition [1]: inconclusive: 2.13%

Cc1ccc(C)c(S(=O)(=O)NCC(c2ccco2)S(=O)(=O)c2ccc(F)cc2)c1 (stereo not given)
activity change, negative = inhibition [1]: inconclusive: -24.5%

O=C1C(C=Nc2ccc(F)cc2)=C(O)c2ccccc21
Potency [1]: inconclusive: 3.98 µM [rising, full curve]

CCc1ccc(NC(=O)c2noc3c2CCc2ccccc2-3)cc1
activity change, negative = inhibition [1]: inconclusive: -29.1%

O=C(NNc1cccc(Cl)n1)c1cccnc1Cl
activity change, negative = inhibition [1]: inconclusive: 0.445%

O=C(Cc1cccs1)Nc1nnc(SCc2ccc(Br)cc2)s1
Potency [1]: inconclusive: 29.1 µM [rising, single point]

CN(C=C1C(=O)CC(C)(C)CC1=O)CCN1CCNCC1
activity change, negative = inhibition [1]: inconclusive: -23.1%

O=c1c2ccccc2[nH]c(=S)n1CCc1ccccc1
activity change, negative = inhibition [1]: inconclusive: 6.27%

COc1cc(/C=C2\SC(=S)N(CCC(=O)Nc3ccccc3)C2=O)cc(OC)c1OC
activity change, negative = inhibition [1]: inactive

Cc1cccc(N2CCN(S(=O)(=O)c3cn(C)cn3)CC2)c1C
activity change, negative = inhibition [1]: inconclusive: -17.6%

CC(C)n1c(N2CCCC2)nc2c1c(=O)[nH]c(=O)n2C
activity change, negative = inhibition [1]: inconclusive: -4%

CN1C[C@H](C(=O)N[C@]2(C)O[C@@]3(O)[C@@H]4CCCN4C(=O)[C@H](Cc4ccccc4)N3C2=O)CC2c3cccc4[nH]cc(c34)C[C@H]21 (stereo not given in full)
activity change, negative = inhibition [1]: inconclusive: -14% | activity change, negative = inhibition (at 46.1 µM (top of the series)): inactive: 7.44%

COc1ccc(NC(=O)C(=O)NCC2CCCN2S(=O)(=O)c2ccc(C)cc2)cc1 (stereo not given)
Potency [1]: inconclusive: 1.46 µM [falling, partial curve, poor fit]

CCC1CCCCN1C(=O)Cn1c(=O)n(CCCC(=O)NCc2ccco2)c(=O)c2sccc21 (stereo not given)
activity change, negative = inhibition [1]: inactive

O=C(Nc1ccc(N2CCN(C(=O)c3ccc(Cl)cc3)CC2)cc1)c1ccc(Br)o1
activity change, negative = inhibition [1]: inactive

N#Cc1c(N)nc(Sc2ccc(Cl)cc2)c(C#N)c1-c1ccccc1Cl
Potency [1]: inconclusive: 20 µM [falling, partial curve, poor fit]

Cn1cccc1/C=C1\CCc2ccccc2C1=O
Potency [1]: inconclusive: 12.6 µM [falling, single point]

Cc1nc(NC(=O)/C=C/c2ccc(F)cc2)sc1C(=O)N(C)C
Potency [1]: inconclusive: 5.17 µM [falling, single point]

CCOC(=O)N1CCN(C(=O)c2ccc(S(=O)(=O)Nc3ccc(C)cc3)cc2)CC1
activity change, negative = inhibition [1]: inactive

Cn1c(=O)c2c(nc(SCCN3CCCCC3)n2C)n(C)c1=O
activity change, negative = inhibition [1]: inconclusive: 15.3%

CCOC(=O)Cn1nc(NC(=O)c2cc(OC)cc(OC)c2)cc1C
Potency [1]: inconclusive: 15.8 µM [falling, single point]

CNC(=S)/N=C/NOCc1c(Cl)cccc1Cl
activity change, negative = inhibition [1]: inconclusive: -18.8%

Cc1csc(NC(=O)c2ccc3c(=O)n4c(nc3c2)CCCCC4)n1
activity change, negative = inhibition [1]: inconclusive: 12.5%

O=C(Nc1ccccc1[N+](=O)[O-])c1cc(S(=O)(=O)Nc2ccccn2)ccc1Cl
Potency [1]: inconclusive: 17.8 µM [falling, single point]

O=C(CSc1nnc2ccc(-c3ccncc3)nn12)N1CCCCC1
activity change, negative = inhibition [1]: inconclusive: -6.14%

CCc1nc2sc3c(c2c(=O)o1)CCCC3
Potency [1]: inconclusive: 29.1 µM [falling, single point]

COc1ccccc1NC(=O)N1CCN(c2ccnc3cc(Cl)ccc23)CC1
activity change, negative = inhibition [1]: inconclusive: -7.36%

CCN(CC(=O)Nc1cc(C)on1)CC(=O)Nc1ccccc1C(F)(F)F
activity change, negative = inhibition [1]: inconclusive: -7.23%

COc1ccc(C(C)=O)cc1COC(=O)c1ccc(N)c([N+](=O)[O-])c1
activity change, negative = inhibition [1]: inconclusive: -18.8%

CC1CN(c2nc3ccccc3cc2-c2ccccc2)CC(C)O1 (stereo not given)
activity change, negative = inhibition [1]: inconclusive: -8.02%

OC(CN1CCCCC1)Cn1c2ccccc2c2ccccc21 (stereo not given)
Potency [1]: inconclusive: 35.5 µM [falling, single point]

CCOC(=O)c1ccc(NC(=S)Nc2ccccn2)cc1
activity change, negative = inhibition [1]: inconclusive: 9.36%
